From the supplement of paper PMC10849652
Some of the results follow.

The chains behind the UniProt entries cited, without tags or fusion partners. Where a name states a change or a piece, a line headed by the entry shows the natural chain unless it says otherwise.
UniProt Q12792, whole entry, looked up: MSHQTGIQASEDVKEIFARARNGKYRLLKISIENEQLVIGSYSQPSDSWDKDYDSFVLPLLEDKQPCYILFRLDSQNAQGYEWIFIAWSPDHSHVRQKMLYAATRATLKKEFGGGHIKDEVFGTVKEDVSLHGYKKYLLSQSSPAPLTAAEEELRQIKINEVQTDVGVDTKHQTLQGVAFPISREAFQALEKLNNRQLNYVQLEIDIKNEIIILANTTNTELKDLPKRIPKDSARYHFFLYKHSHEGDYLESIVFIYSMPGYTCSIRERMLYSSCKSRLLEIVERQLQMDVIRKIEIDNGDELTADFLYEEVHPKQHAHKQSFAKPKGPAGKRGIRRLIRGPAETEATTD
UniProt O15042: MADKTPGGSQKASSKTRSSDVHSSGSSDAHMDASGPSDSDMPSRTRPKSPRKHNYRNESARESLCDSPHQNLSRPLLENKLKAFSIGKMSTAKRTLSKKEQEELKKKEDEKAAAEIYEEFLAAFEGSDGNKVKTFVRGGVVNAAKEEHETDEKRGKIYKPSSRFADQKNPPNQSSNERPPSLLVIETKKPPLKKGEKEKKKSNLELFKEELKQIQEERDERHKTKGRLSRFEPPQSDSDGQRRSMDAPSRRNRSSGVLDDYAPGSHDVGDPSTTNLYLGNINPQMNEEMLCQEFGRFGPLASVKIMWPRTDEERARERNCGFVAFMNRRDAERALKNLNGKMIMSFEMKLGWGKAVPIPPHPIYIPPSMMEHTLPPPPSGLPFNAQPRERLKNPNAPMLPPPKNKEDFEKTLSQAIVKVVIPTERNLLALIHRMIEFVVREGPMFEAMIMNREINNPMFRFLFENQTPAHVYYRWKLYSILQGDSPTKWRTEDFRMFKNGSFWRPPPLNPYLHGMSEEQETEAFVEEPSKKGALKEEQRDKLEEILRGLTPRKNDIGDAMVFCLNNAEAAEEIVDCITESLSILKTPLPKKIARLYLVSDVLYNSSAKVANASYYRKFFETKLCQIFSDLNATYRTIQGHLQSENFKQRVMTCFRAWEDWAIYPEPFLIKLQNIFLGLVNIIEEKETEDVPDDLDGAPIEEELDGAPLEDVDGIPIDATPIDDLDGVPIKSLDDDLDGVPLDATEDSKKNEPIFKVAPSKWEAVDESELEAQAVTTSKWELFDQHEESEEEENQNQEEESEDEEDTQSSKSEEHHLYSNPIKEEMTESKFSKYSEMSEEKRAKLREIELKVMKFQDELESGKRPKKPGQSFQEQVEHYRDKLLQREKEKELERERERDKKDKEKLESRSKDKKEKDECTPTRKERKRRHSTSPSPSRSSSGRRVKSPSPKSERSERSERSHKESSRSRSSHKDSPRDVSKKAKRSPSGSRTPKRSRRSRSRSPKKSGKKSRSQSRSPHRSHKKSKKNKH
UniProt Q99598: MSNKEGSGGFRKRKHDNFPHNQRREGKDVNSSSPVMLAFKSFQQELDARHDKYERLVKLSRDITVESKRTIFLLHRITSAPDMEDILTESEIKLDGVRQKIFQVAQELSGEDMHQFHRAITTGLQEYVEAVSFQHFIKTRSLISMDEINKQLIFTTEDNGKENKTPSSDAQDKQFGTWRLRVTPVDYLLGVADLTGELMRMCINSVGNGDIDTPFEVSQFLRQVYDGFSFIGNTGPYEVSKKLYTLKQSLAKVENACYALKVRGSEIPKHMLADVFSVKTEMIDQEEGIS
UniProt P10599: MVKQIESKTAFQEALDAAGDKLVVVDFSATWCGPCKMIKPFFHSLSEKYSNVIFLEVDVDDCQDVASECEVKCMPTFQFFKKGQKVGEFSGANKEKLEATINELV
UniProt P23258, whole entry, looked up: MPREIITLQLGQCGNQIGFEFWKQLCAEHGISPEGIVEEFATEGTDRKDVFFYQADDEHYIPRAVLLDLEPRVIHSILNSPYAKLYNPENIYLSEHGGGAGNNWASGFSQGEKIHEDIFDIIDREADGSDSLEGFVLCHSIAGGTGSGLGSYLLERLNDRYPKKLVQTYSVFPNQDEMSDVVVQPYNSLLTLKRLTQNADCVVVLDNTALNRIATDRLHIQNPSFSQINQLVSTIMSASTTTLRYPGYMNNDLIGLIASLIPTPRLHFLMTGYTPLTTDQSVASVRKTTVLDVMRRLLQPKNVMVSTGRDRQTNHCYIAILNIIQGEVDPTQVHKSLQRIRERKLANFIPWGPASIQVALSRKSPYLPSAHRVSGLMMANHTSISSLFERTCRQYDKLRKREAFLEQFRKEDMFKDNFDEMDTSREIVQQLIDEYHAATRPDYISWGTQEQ
UniProt P49459, whole entry, looked up: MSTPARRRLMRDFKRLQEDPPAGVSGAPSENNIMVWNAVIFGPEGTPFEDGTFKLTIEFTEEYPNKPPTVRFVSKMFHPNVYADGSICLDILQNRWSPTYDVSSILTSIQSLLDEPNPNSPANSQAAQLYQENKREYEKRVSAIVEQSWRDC
UniProt P61077: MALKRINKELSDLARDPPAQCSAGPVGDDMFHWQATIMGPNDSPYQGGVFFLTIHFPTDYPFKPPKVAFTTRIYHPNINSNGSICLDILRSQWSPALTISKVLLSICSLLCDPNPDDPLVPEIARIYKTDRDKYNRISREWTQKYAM
UniProt Q9UJK0: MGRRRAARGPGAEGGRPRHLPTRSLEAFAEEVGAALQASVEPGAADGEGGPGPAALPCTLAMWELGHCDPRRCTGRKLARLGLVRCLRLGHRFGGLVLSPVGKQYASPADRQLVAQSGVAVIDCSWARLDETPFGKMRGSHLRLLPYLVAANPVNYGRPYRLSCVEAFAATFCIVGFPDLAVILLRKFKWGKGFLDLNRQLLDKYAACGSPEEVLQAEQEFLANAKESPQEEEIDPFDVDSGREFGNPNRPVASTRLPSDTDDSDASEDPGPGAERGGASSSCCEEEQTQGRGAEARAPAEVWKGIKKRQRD
UniProt Q5R3I4: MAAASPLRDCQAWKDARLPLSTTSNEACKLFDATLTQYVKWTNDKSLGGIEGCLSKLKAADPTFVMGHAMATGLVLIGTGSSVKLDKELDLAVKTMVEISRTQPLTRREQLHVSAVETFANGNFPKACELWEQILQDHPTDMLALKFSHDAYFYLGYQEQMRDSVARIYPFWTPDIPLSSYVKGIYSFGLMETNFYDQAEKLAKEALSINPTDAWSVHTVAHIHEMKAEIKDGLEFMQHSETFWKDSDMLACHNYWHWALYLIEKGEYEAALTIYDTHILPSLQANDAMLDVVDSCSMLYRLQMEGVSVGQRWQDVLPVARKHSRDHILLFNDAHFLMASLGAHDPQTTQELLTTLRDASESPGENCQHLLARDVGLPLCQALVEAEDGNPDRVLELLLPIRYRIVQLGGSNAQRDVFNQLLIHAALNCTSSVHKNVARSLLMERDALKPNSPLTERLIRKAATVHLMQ
UniProt Q16881, whole entry, looked up: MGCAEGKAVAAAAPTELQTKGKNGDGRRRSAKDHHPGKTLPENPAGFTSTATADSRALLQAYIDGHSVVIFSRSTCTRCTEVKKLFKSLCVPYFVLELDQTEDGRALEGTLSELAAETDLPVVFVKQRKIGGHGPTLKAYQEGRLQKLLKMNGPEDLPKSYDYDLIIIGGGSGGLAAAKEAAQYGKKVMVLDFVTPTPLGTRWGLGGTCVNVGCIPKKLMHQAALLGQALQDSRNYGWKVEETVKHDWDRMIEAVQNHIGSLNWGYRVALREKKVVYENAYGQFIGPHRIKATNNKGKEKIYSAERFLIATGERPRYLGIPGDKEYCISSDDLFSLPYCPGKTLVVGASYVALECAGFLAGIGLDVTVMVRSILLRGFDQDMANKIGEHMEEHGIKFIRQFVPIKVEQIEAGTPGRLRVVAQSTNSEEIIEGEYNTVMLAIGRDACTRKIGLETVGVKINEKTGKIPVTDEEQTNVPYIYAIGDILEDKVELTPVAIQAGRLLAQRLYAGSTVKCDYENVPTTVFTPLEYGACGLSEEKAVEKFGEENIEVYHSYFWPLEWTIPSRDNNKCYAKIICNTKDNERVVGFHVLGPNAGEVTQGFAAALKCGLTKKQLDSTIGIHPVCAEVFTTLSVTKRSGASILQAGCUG
UniProt Q8NBM4: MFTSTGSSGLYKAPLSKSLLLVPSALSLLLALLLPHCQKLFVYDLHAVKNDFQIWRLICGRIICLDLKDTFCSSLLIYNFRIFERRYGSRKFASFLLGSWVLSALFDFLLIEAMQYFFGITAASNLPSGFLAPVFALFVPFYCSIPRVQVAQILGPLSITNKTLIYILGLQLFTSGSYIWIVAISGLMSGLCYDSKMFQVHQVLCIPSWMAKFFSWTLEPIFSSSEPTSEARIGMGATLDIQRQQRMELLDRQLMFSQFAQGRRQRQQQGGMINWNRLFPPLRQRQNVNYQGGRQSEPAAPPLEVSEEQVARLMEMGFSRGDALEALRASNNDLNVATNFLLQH
UniProt O14530: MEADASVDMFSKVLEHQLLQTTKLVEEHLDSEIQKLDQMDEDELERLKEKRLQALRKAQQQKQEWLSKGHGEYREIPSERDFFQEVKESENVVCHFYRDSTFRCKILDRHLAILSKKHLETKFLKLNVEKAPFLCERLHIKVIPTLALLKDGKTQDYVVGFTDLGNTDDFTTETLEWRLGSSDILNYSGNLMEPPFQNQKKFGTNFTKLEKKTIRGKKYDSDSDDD
UniProt Q9BUF5, whole entry, looked up: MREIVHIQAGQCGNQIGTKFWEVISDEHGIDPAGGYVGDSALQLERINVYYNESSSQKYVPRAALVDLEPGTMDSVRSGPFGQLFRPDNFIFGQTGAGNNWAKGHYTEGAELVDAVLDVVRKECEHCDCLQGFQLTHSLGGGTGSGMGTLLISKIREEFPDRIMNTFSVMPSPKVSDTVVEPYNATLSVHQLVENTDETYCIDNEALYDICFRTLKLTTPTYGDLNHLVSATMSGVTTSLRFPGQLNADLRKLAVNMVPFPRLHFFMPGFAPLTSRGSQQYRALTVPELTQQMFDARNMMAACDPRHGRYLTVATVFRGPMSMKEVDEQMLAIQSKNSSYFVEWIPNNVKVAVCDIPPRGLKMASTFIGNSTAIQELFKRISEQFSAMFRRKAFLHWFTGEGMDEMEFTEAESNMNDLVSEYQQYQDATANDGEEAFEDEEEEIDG
UniProt P30536, whole entry, looked up: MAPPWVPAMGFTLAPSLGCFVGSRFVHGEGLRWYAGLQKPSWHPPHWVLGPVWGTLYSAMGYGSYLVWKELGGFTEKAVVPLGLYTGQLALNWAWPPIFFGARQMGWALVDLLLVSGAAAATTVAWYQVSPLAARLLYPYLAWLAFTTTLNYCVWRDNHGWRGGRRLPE
UniProt Q9UBT2: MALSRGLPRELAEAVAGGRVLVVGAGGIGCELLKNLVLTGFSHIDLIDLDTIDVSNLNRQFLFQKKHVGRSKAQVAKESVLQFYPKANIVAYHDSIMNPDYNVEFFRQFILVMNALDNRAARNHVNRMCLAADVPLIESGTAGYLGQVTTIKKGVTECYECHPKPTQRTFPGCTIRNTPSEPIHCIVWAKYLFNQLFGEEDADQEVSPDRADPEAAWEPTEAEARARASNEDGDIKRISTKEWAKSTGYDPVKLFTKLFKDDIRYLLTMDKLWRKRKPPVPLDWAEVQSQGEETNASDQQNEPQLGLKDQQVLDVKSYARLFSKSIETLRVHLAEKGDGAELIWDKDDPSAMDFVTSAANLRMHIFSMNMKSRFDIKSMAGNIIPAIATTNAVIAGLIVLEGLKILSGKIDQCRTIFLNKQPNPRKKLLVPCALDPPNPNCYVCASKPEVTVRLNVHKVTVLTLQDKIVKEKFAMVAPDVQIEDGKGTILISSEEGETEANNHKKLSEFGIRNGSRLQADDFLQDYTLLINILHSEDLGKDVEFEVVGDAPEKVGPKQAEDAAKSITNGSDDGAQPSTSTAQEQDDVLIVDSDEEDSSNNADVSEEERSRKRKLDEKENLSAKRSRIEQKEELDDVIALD
UniProt P43897: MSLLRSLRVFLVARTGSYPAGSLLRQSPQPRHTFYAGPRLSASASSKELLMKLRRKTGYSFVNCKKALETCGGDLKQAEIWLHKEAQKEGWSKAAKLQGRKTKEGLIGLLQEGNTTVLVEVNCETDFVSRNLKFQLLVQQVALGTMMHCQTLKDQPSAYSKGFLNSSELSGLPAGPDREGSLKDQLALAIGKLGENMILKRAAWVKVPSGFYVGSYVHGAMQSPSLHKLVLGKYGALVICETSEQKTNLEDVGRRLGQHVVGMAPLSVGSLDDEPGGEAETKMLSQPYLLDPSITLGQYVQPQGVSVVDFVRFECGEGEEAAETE
UniProt Q8NBS9: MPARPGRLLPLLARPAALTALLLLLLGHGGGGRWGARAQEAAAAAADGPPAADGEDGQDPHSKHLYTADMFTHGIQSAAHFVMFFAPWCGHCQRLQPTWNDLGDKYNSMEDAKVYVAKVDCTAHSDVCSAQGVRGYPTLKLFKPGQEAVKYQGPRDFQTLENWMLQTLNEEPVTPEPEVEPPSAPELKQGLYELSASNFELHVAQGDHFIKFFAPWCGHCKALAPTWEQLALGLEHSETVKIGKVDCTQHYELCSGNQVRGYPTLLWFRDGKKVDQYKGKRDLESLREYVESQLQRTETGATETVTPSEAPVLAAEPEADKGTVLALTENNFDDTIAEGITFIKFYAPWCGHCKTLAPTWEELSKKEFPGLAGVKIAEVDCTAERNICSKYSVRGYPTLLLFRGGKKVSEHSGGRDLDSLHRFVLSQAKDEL

Tests used:
Assay in all cases: log2 fold change, soluble protein after heating vs DMSO (PISA); higher = thermal stabilisation; K562 cells, 10 uM, 30 min; active = over 0.2 and 3.5 SD of the protein, either way, in both replicates (recomputed)
[1] = compound: C#Cc1cccc(Nc2ncnc3cc(OCCOC)c(OCCOC)cc23)c1 [erlotinib]
Outline: (§1)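 K562 cells at 2×10^6 cells/mL were exposed to 10 μM compound for 30 min, then aliquots were heated for 3 min across 48°C-58°C, pooled, and extracted in PBS containing 0.5% NP-40 at 4°C. The supernatant after 21,000xg for 90 min was taken as soluble protein and measured by TMTpro 16plex LC-MS/MS with channel sums equalised. Thermal stability is reported relative to control samples, with values from duplicates. Fold changes are given on a log2 scale.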

[2] = compound: C/C(=N\NC(=O)C1=CC(=CC=C1)S(=O)(=O)N2CCOCC2)/C3=C(C=CC(=C3)Cl)O
Outline: as §1

[3] = compound: C1=CC(=C(C=C1Cl)C2=NC3=NC=CN=C3C(=N2)NC4=CC=NC=C4)F
Outline: as §1

[4] = compound: C1=CC(=CC=C1C2=NC3=C(N2)C=C(C=C3)C(=O)N)OC4=CC=C(C=C4)Cl
Outline: as §1

[5] = compound: C1=CC2=C(C=CC(=C2)/C=C\3/C(=O)NC(=NCC4=CC=CS4)S3)N=C1
Outline: as §1

[6] = compound: C1=CC2=NC=CN=C2C=C1/C=C/3\C(=O)NC(=O)S3
Outline: as §1

[7] = compound: C1=CC=C(C=C1)C2=NC(=C(N2)C3=CC=NC=C3)C4=CC(=C(C=C4)Cl)O
Outline: as §1

[8] = compound: C1=CC=C2C(=C1)C3=NNC4=CC=CC(=C43)C2=O
Outline: as §1

[9] = compound: C1CCN(C1)C(=O)NC2=CC=CC(=C2)NC3=NC=C(C(=N3)NCCC4=CN=CN4)Br
Outline: as §1

[10] = compound: C1CN(CCC1(CC2=CC=C(C=C2)Cl)N)C3=NC=NC4=C3C=CN4
Outline: as §1

Target	log2 fold change [1]	log2 fold change [2]	log2 fold change [3]	log2 fold change [4]	log2 fold change [5]	log2 fold change [6]	log2 fold change [7]	log2 fold change [8]	log2 fold change [9]	log2 fold change [10]
TWF1 (UniProt Q12792)	inactive: -0.074	inactive: 0.129	inactive: 0.028	inactive: 0.063	inactive: 0.002	inactive: 0.083	inactive: 0.019	inactive: -0.021	inactive: -0.019	inactive: -0.068
U2SURP (UniProt O15042)	inactive: 0.072	inactive: 0.106	inactive: -0.116	inactive: -0.005	inactive: -0.012	inactive: 0.155	inactive: 0.05	inactive: -0.08	inactive: -0.105	inactive: -0.128
TSR2 (UniProt Q969E8)	inactive: -0.077	inactive: 0.011	inactive: -0.075	inactive: -0.024	inactive: 0	inactive: 0.054	inactive: 0.1	inactive: 0.015	inactive: -0.061	inactive: -0.004
TSNAX (UniProt Q99598)	inactive: -0.03	inactive: -0.003	inactive: 0.026	inactive: 0.007	inactive: -0.013	inactive: 0.017	inactive: -0.032	inactive: -0.01	inactive: -0.01	inactive: 0.041
TSR1 (UniProt Q2NL82)	inactive: -0.023	inactive: -0.017	inactive: -0.169	inactive: 0.032	inactive: -0.023	inactive: -0.026	inactive: 0.038	inactive: 0.085	inactive: 0.024	inactive: -0.181
UBE2R2 (UniProt Q712K3)	inactive: -0.027	inactive: 0.025	inactive: 0.059	inactive: -0.021	inactive: -0.075	inactive: 0.04	inactive: 0.002	inactive: 0.021	inactive: 0.021	inactive: 0.017
TTLL12 (UniProt Q14166)	inactive: -0.072	inactive: -0.022	inactive: -0.203	inactive: 0.007	inactive: 0.014	inactive: -0.109	inactive: -0.101	inactive: 0.032	inactive: -0.104	inactive: -0.247
TXN (UniProt P10599)	inactive: -0.031	inactive: -0.023	inactive: 0.057	inactive: 0.02	inactive: -0.069	inactive: -0.012	inactive: -0.022	inactive: 0.003	inactive: 0.02	inactive: 0.039
UBE2N (UniProt P61088)	inactive: 0.064	inactive: 0.052	inactive: 0.113	inactive: -0.058	inactive: 0.064	inactive: 0.059	inactive: 0.04	inactive: 0.018	inactive: -0.006	inactive: 0.004
TUBG1 (UniProt P23258)	inactive: -0.059	inactive: -0.123	inactive: -0.037	inactive: 0.06	inactive: 0.061	inactive: -0.008	inactive: -0.006	inactive: -0.014	inactive: -0.015	inactive: 0.115
TXLNA (UniProt P40222)	inactive: -0.039	inactive: 0.033	inactive: 0.071	inactive: -0.008	inactive: -0.001	inactive: 0	inactive: 0.001	inactive: 0.035	inactive: 0.008	inactive: 0.005
UBE2A (UniProt P49459)	inactive: 0.013	inactive: 0.042	inactive: 0.114	inactive: 0.045	inactive: 0.005	inactive: -0.014	inactive: -0.049	inactive: 0.026	inactive: -0.098	inactive: -0.05
UBE2D3 isoform 3 (UniProt P61077)	inactive: 0	inactive: 0.064	inactive: 0.105	inactive: -0.007	inactive: 0.033	inactive: 0.024	inactive: 0.023	inactive: 0.054	inactive: -0.009	inactive: 0.001
TTN isoform 12 (UniProt Q8WZ42)	inactive: 0.143	inactive: -0.245	inactive: -0.004	inactive: 0.009	inactive: 0.227	inactive: -0.134	inactive: -0.125	inactive: -0.077	inactive: 0.076	inactive: -0.026
TSR3 (UniProt Q9UJK0)	inactive: -0.047	inactive: -0.032	inactive: -0.189	inactive: 0.061	inactive: 0.033	inactive: -0.039	inactive: -0.053	inactive: 0.02	inactive: -0.03	inactive: -0.044
TTC38 (UniProt Q5R3I4)	active: 0.749	inactive: 0.032	inactive: 0.082	inactive: 0.072	inactive: 0.021	inactive: -0.002	inactive: 0.035	inactive: 0.09	inactive: -0.06	inactive: 0.025
TXNRD1 (UniProt Q16881)	inactive: 0.021	inactive: 0.049	inactive: 0.057	inactive: -0.006	inactive: 0.009	inactive: 0.074	inactive: 0.027	inactive: 0.019	inactive: 0.005	inactive: 0.046
UBAC2 (UniProt Q8NBM4)	inactive: 0.011	inactive: 0.041	inactive: -0.048	inactive: 0.009	inactive: 0.065	inactive: 0.14	inactive: 0.075	inactive: -0.017	inactive: -0.092	inactive: 0.046
UBE2B (UniProt P63146)	inactive: 0.004	inactive: 0.049	inactive: 0.124	inactive: 0.121	inactive: 0.16	inactive: -0.03	inactive: 0.037	inactive: 0.023	inactive: 0.08	inactive: -0.027
TXNDC9 (UniProt O14530)	inactive: -0.044	inactive: 0.044	inactive: -0.03	inactive: 0.062	inactive: -0.035	inactive: 0.015	inactive: -0.011	inactive: 0.041	inactive: -0.008	inactive: -0.031
TUBB6 (UniProt Q9BUF5)	inactive: 0.005	inactive: 0.014	inactive: 0.039	inactive: 0.022	inactive: 0	inactive: -0.06	inactive: 0.022	inactive: 0.004	inactive: 0.001	inactive: 0.044
TSPO (UniProt P30536)	inactive: 0.004	inactive: -0.015	inactive: -0.015	inactive: 0.065	inactive: 0.042	inactive: 0.037	inactive: 0.041	inactive: -0.067	inactive: 0.057	inactive: 0.01
UBA52 (UniProt P62987)	inactive: -0.113	inactive: -0.266	inactive: -0.659	inactive: 0.093	inactive: -0.311	inactive: -0.024	inactive: -0.029	inactive: -0.082	inactive: 0.165	inactive: -0.04
UBA2 (UniProt Q9UBT2)	inactive: -0.035	inactive: 0.086	inactive: 0.077	inactive: 0	inactive: 0.022	inactive: 0.043	inactive: -0.022	inactive: 0.009	inactive: -0.002	inactive: -0.023
TUSC3 isoform 2 (UniProt Q13454)	inactive: -0.017	inactive: -0.094	inactive: 0.01	inactive: 0.016	inactive: 0.012	inactive: 0.101	inactive: -0.052	inactive: -0.079	inactive: 0.037	inactive: -0.012
UBAP2 (UniProt Q5T6F2)	inactive: 0.038	inactive: -0.03	inactive: 0.017	inactive: -0.011	inactive: -0.049	inactive: 0.002	inactive: -0.049	inactive: -0.021	inactive: 0.021	inactive: 0.019
TSFM (UniProt P43897)	inactive: 0.037	inactive: -0.004	inactive: 0.302	inactive: -0.206	inactive: 0.189	inactive: 0.044	inactive: 0.11	inactive: -0.069	inactive: -0.016	inactive: 0.095
UBAC1 (UniProt Q9BSL1)	inactive: 0.011	inactive: 0.028	inactive: 0.049	inactive: -0.014	inactive: 0.027	inactive: 0.023	inactive: -0.009	inactive: -0.038	inactive: 0.004	inactive: -0.051
TXNDC5 (UniProt Q8NBS9)	inactive: -0.011	inactive: 0	inactive: 0.089	inactive: -0.025	inactive: -0.026	inactive: 0.012	inactive: -0.008	inactive: -0.035	inactive: 0.003	inactive: 0.039
TUBB6 (UniProt K7ES63)	inactive: 0.276	inactive: -0.235	inactive: 0.055	inactive: -0.04	inactive: 0.221	inactive: 0.098	inactive: 0.055	inactive: -0.118	inactive: 0.229	inactive: 0.09

Two entries from above in another layout.
Target | log2 fold change [1] | log2 fold change [2] | log2 fold change [3] | log2 fold change [4] | log2 fold change [5] | log2 fold change [6] | log2 fold change [7] | log2 fold change [8] | log2 fold change [9] | log2 fold change [10]
UBE2B (UniProt P63146) | inactive: 0.004 | inactive: 0.049 | inactive: 0.124 | inactive: 0.121 | inactive: 0.16 | inactive: -0.03 | inactive: 0.037 | inactive: 0.023 | inactive: 0.08 | inactive: -0.027
TXNDC9 (UniProt O14530) | inactive: -0.044 | inactive: 0.044 | inactive: -0.03 | inactive: 0.062 | inactive: -0.035 | inactive: 0.015 | inactive: -0.011 | inactive: 0.041 | inactive: -0.008 | inactive: -0.031
